PubChem BioAssay AID2685 (National Center for Advancing Translational Sciences (NCATS), 2010)
Some of the results follow. Further columns of the screen follow, without active or inactive calls. The list favours compounds with an active or inconclusive main result. Potencies come from curve fits of mixed quality, noted in brackets.

Assay: qHTS Assay for Lipid Storage Modulators in Drosophila S3 Cells;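 as to cell number change: cells counted by Cell Tracker Red CMTPX staining in the red channel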
Settings: BODIPY lipid droplet fluorescence, 18-24 h; for cell number change: measured here: cell count max response, cells fed with added oleic acid
Outline: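 Laser-scanning cytometry quantifies lipid droplet accumulation (500–530 nm total intensity; droplet/cell object ratio) in oleic acid-fed (400 uM added) Drosophila S3 cells treated with a concentration series. 20 uM Triacsin C defined 100% inhibition.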

[1] = measured here: cell number channel AC50, cells fed with added oleic acid
[2] = measured here: lipid fluorescence (Fed channel) AC50, cells fed with added oleic acid

Structure (SMILES)	cell number change [%]	AC50 [1]	AC50 [2]
CCOc1ccccc1N1CC(C(=O)N2CCc3ccccc32)CC1=O (stereo not given)	10.9		
CCCCCCC(=O)N(O)C1CC(=O)N(c2ccccc2)C1=O (stereo not given)	-93.5	18400 nM [falling, partial curve]	517 nM [falling, full curve, poor fit]
CCCC(=O)NC(=S)NNC(=O)c1ccc([N+](=O)[O-])cc1	-3.96		
CCC(C(=O)NCc1ccc(F)cc1)N(CCc1ccccc1)C(=O)c1snc(C(N)=O)c1N (stereo not given)	24.4		
COc1ccc(C)cc1S(=O)(=O)N(C)CC(=O)NCc1ccccn1	1.39		
CC(C(=O)c1ccc(-c2ccccc2)cc1)[n+]1cccc(NC(=O)c2ccccc2)c1 (stereo not given)	-30.3	29100 nM [falling, single point]	
Cc1cccc(S(=O)(=O)C(C#N)c2nc3ccccc3nc2N2CC(C)OC(C)C2)c1 (stereo not given)		731 nM [rising, full curve, poor fit]	
COc1ccc(OC)c(/C(O)=C/C(=O)C(=O)Nc2ccccc2OC)c1	-3.67		92 nM [falling, partial curve, poor fit]
CN(CC(=O)Nc1ccc(Cl)cc1)C(=O)c1ccc(-n2cncn2)c([N+](=O)[O-])c1		3260 nM [falling, partial curve]	820 nM [rising, single point]
N#CCCN(C(=O)COC(=O)c1cccc(S(=O)(=O)Nc2ccc([N+](=O)[O-])cc2)c1)c1ccccc1	-14.6		2060 nM [falling, partial curve, poor fit]
CCOc1ccc(C(=O)NCC(=O)N2CCC3(CC2)NCCc2[nH]cnc23)cc1	79.2	29100 nM [rising, single point]	29100 nM [rising, single point]
Cc1ccc(C)c(C(=O)COC(=O)Cn2[nH]c(=O)c3ccccc3c2=O)c1	-5.19		
CC1CCCCN1C(=S)NCc1ccco1 (stereo not given)	-16.5	5.17 nM [falling, full curve, poor fit]	
CCOc1ccc(C2CC(=O)c3c([nH]c(C(=O)OC)c3C)C2)cc1OC (stereo not given)	6.96	461 nM [falling, single point]	580 nM [rising, full curve]
CCN(CC)CCN(C(=O)c1ccc(C(=O)c2ccccc2)cc1)c1nc2c(OC)cccc2s1	9.54		
O=C(c1ccc(Br)o1)N1CCN(c2ccccn2)CC1	270	29100 nM [rising, single point]	29100 nM [rising, single point]
Cc1ccccc1NC(=O)NCCCN1CCN(C2CCCCC2)CC1	12.8		29100 nM [rising, single point]
O=C(NCc1csc(-c2cccs2)n1)C1CC1	-47.2	29100 nM [falling, single point]	
O=C(Nc1ccc(Cl)cc1Cl)C1=Cc2ccccc2OC1	11.5		461 nM [rising, full curve, poor fit]
CCOc1cc(C2C(C(=O)c3ccco3)=C(O)C(=O)N2CC2CCCO2)ccc1O (stereo not given)	23.9		29100 nM [rising, single point]

Structure (SMILES)	cell number change [%]	AC50 [1]	AC50 [2]
Cc1ccc(S(=O)(=O)N2CCC(C(=O)N3CCC[C@H]3C(=O)NCC(C)C)CC2)cc1		580 nM [rising, partial curve]	
Cc1ccc(S(=O)(=O)NCC(=O)N(CC(=O)NC2CCCCC2)Cc2ccco2)cc1	215	18400 nM [rising, single point]	
CCC(C(=O)OCC(=O)c1c(N)n(CC(C)C)c(=O)n(C)c1=O)c1ccccc1 (stereo not given)	-15.9		3660 nM [falling, full curve]
CCOc1ccc(C2C(C(=O)c3ccco3)=C(O)C(=O)N2Cc2cccnc2)cc1OC (stereo not given)	1.8		
COc1ccc(Br)cc1/C=C(\C(=O)O)c1ccc(S(=O)(=O)N2CCCCC2)s1	4.23		461 nM [falling, full curve, poor fit]
CC(=O)/C(=C(/O)c1ccccc1)c1nc2ccccc2[nH]1	16		
COc1ccc(CC(=O)NCc2n[nH]c(=S)n2-c2ccc(F)cc2)cc1	-4.31		
O=C(Nc1ccccc1-c1ccccc1)c1ccc(=O)[nH]n1			651 nM [falling, partial curve, poor fit]
COc1cc2c(cc1OC)C(C)N(C(=O)c1nccnc1C(=O)O)CC2 (stereo not given)	-1.06		13 nM [falling, full curve]
COc1ccc(OC)c(NC(=O)Cc2coc3cc(C)cc(C)c23)c1	-13.3		4610 nM [rising, single point]
COc1cc(/C(C)=N/N2CCOCC2)cc(OC)c1OC	-9.77	1300 nM [falling, full curve, poor fit]	651 nM [falling, full curve, poor fit]
CC(C)=C(NC(=O)c1ccccc1)C(=O)NC(Cc1ccccc1)C(=O)O (stereo not given)			1300 nM [falling, full curve]
CC(C)COC(=O)c1ccc(NC(=O)C2C3C=CC(C3)C2C(=O)O)cc1 (stereo not given)	-19.6		73.1 nM [falling, single point]
Cc1cnc(CN2CCc3c([nH]c4ccccc34)C2CC(C)C)[nH]1 (stereo not given)	-17.2		14600 nM [falling, partial curve]
Cc1cc([N+](=O)[O-])nn1Cc1ccccc1F	0.862	731 nM [rising, single point]	
COc1ccc(CC2(CO)CCN(Cc3cccc(OC)c3OC)CC2)cc1	5.78		6510 nM [falling, single point]
O=C(CCN1c2ccccc2Sc2ccccc21)Nc1ccccc1	42.1	29100 nM [rising, single point]	
CCN1CCN(c2ccc(S(=O)(=O)N3CCOCC3)cc2NC(=O)C(C)Oc2ccc(F)cc2)CC1 (stereo not given)	6.33	651 nM [falling, full curve, poor fit]	4610 nM [falling, single point]
Cc1cc(C)c(OCC(=O)OCC(=O)N2CCN(C(=O)c3ccco3)CC2)c(C)c1	-14		

10 of the compounds above, with bars between the fields:
Structure (SMILES) | cell number change [%] | AC50 [1] | AC50 [2]
O=C(Nc1ccccc1-c1ccccc1)c1ccc(=O)[nH]n1 |  |  | 651 nM [falling, partial curve, poor fit]
COc1cc2c(cc1OC)C(C)N(C(=O)c1nccnc1C(=O)O)CC2 (stereo not given) | -1.06 |  | 13 nM [falling, full curve]
COc1ccc(OC)c(NC(=O)Cc2coc3cc(C)cc(C)c23)c1 | -13.3 |  | 4610 nM [rising, single point]
COc1cc(/C(C)=N/N2CCOCC2)cc(OC)c1OC | -9.77 | 1300 nM [falling, full curve, poor fit] | 651 nM [falling, full curve, poor fit]
CC(C)=C(NC(=O)c1ccccc1)C(=O)NC(Cc1ccccc1)C(=O)O (stereo not given) |  |  | 1300 nM [falling, full curve]
CC(C)COC(=O)c1ccc(NC(=O)C2C3C=CC(C3)C2C(=O)O)cc1 (stereo not given) | -19.6 |  | 73.1 nM [falling, single point]
Cc1cnc(CN2CCc3c([nH]c4ccccc34)C2CC(C)C)[nH]1 (stereo not given) | -17.2 |  | 14600 nM [falling, partial curve]
Cc1cc([N+](=O)[O-])nn1Cc1ccccc1F | 0.862 | 731 nM [rising, single point] | 
COc1ccc(CC2(CO)CCN(Cc3cccc(OC)c3OC)CC2)cc1 | 5.78 |  | 6510 nM [falling, single point]
O=C(CCN1c2ccccc2Sc2ccccc21)Nc1ccccc1 | 42.1 | 29100 nM [rising, single point] | 
